Measured values taken from PMC10396025.

Protein sequences, listed by entry. Tags and fused reporters are not part of them. Lines headed by an entry give the natural chain unless they say otherwise; changes in a name come on top.
UniProt P97496: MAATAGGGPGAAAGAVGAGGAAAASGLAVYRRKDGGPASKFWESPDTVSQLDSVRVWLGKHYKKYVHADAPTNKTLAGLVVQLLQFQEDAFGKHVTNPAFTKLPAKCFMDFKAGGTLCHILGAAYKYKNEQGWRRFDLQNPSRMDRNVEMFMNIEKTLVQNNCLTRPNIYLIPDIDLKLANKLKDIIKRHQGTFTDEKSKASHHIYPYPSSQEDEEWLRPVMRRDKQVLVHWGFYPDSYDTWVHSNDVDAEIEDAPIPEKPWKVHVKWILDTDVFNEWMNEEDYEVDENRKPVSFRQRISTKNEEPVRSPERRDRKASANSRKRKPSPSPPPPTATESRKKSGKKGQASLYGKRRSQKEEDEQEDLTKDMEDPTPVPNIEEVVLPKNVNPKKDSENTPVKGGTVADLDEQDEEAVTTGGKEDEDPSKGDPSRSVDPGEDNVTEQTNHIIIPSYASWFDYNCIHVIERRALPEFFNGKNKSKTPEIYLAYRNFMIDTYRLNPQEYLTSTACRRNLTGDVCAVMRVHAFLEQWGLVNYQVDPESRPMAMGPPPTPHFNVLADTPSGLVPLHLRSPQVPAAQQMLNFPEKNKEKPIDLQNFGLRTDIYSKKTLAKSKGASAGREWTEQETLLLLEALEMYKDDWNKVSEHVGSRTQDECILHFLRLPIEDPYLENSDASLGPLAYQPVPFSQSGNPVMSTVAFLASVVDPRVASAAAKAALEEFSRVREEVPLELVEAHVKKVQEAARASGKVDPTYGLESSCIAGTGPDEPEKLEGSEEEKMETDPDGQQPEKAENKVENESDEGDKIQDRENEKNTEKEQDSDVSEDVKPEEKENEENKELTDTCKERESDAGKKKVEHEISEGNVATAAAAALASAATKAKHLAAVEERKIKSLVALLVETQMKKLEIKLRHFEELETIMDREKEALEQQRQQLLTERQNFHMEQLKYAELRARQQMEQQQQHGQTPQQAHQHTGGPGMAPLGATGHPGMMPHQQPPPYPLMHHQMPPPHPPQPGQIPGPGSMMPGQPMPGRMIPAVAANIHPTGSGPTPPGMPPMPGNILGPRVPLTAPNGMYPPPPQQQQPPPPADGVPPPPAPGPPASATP
UniProt P42227: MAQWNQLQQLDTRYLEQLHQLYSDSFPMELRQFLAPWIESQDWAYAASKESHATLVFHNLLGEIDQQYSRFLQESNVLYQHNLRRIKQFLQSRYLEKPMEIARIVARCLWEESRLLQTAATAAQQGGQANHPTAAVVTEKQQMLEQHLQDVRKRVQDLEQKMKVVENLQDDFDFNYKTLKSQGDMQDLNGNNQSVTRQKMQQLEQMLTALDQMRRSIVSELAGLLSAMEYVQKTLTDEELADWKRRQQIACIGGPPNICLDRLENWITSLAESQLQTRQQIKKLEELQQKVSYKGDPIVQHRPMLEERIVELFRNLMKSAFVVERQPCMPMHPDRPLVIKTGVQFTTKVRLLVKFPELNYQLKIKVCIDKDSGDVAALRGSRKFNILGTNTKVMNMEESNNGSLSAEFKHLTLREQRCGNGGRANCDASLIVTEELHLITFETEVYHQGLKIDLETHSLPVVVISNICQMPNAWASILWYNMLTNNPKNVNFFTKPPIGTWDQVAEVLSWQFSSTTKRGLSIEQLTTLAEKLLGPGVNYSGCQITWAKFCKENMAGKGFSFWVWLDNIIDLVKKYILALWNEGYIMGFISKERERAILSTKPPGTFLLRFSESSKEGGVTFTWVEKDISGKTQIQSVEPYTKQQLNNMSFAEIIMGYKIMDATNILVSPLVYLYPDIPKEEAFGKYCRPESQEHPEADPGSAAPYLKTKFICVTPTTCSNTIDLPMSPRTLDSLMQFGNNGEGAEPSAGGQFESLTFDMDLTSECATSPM

Legend:
[1] = target: Brg1/Brm-associated factor 155 (Baf155)-His (UniProt P97496); experiment: co-IP; C2C12 cells co-transfected with His-tagged Baf155 constructs and STAT3 constructs; lysates (Pierce Co-IP lysis buffer, sonication) precipitated with Ni-NTA agarose overnight at 4°C; washed 6 times with 20 mM Tris, 150 mM NaCl, 20 mM imidazole pH 8.0; western blot
[2] = target: Baf155 without coiled-coil domain (Baf155^ΔCCD)-His (UniProt P97496); experiment: as above

Substance	binding [1]	binding [2]
STAT3 without coiled-coil domain (STAT3^ΔCCD) (from UniProt P42227)	no binding	–
signal transducer and activator of transcription 3 (STAT3)-Flag (from UniProt P42227 1-770)	–	binds

No constants are given. Whether binding was seen depends on the method and setting. Binding seen in cells or lysates may run through a third protein. For some assays here: A result given as binding can be weak or reduced; the word gives no strength.
